The values that follow come from paper doi:10.1101/2025.03.07.641992.

The chains behind the UniProt entries cited, without tags or fusion partners.
UniProt P16473, whole entry: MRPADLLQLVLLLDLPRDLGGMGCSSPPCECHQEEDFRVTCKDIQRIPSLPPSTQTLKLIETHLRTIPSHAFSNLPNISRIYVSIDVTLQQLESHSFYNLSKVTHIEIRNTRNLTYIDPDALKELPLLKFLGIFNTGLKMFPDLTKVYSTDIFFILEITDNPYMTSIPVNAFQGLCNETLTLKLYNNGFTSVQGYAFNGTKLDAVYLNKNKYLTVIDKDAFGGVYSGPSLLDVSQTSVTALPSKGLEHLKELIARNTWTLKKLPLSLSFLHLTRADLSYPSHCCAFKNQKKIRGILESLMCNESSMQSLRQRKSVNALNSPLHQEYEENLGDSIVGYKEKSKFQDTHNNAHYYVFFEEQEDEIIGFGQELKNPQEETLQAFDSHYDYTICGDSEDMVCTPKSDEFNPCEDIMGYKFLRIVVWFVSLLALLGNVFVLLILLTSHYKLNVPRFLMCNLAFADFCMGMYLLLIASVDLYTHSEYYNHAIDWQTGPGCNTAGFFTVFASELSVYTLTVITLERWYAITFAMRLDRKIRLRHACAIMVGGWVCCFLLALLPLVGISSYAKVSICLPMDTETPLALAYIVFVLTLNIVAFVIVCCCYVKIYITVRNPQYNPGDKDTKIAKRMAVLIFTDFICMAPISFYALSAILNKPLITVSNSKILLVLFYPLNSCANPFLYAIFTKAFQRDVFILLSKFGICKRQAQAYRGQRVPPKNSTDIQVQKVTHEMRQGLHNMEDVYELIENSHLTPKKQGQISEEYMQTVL
UniProt P16473, whole entry K218A: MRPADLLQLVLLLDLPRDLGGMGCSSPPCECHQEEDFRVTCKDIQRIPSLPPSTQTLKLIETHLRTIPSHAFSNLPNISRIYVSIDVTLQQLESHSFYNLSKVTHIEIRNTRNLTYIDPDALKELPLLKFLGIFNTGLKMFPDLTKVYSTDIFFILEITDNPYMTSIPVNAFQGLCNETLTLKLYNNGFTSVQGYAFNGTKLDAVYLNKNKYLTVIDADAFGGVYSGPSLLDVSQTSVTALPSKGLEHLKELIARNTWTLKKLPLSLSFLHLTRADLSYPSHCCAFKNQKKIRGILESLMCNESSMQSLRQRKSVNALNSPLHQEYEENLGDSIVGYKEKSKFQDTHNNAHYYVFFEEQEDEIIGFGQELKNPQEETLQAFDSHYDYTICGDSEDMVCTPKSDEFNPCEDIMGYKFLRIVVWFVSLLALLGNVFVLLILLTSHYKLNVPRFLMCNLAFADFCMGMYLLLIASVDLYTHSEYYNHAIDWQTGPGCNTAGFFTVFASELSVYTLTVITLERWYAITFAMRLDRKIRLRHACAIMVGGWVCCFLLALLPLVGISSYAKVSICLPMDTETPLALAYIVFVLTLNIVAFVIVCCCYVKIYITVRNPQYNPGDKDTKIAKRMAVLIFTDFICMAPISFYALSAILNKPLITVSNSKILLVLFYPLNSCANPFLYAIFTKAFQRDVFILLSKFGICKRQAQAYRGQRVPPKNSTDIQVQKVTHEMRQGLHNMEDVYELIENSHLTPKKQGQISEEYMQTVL
UniProt P16473, whole entry N170A/K218A/D219A/K244A: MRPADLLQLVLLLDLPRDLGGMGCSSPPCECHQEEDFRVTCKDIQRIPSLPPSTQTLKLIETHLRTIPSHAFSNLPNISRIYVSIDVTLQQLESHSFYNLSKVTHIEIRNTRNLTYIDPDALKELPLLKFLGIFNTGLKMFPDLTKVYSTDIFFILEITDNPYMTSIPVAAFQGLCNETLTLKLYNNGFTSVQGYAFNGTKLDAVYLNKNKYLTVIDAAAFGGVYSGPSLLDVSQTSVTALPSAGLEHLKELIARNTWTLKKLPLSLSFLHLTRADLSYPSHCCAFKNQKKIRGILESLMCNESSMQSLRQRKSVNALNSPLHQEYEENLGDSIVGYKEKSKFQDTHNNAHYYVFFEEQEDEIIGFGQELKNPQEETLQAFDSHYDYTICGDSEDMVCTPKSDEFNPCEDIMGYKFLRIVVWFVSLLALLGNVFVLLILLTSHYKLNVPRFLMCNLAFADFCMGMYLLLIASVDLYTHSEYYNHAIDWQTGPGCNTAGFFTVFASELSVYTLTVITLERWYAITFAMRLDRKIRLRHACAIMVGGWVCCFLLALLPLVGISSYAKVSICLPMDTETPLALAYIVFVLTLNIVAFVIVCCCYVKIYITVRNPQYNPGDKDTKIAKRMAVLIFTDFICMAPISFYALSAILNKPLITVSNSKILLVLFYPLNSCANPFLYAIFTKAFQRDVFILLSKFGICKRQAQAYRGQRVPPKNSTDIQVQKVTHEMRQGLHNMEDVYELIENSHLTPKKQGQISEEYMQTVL

In data set [1] the target is TSHR on HEK293T cells (TSHR-293T) (human) (UniProt P16473). Put plainly: flow cytometry. The settings on record: protein on the cell surface. On the technique in general: Flow cytometry measures light scatter and fluorescence of single cells or particles in a stream.
Data set [2] deals with TSHR from TSHR-293T membrane protein extract (human) (UniProt P16473). Description: pull-down. The conditions noted are these: protein in a lysate after overexpression.
For data set [3], the target named is TSHR on HEK293T cells (TSHR-293T) (human) (UniProt P16473). Put plainly: competition with a labelled probe. The conditions noted are these: excess unlabeled YC3 vs FAM-PS-YC3-PEG; protein on the cell surface.
The target in another data set is TSHR K218A (human) (UniProt P16473). Put plainly: flow cytometry. The conditions noted are these: largest decrease of the single mutants; protein on the cell surface.
For data set [4], the target named is TSHR on Nthy-ori 3-1 cells (UniProt P16473). Description: flow cytometry. The settings on record: reduced by TSHR siRNA; protein on the cell surface.
Data set [5] has as its target TSHR quadruple mutant N170A,K218A,D219A,K244A (human) (UniProt P16473). Put plainly: flow cytometry. The settings on record: most reduced of all mutants; protein on the cell surface.
[6] abbreviates: 250 nM aptamer, less intense signal.

The exact form of at least one protein or probe is not confirmed. Where cells or extracts were used, other partners may take part. For some of these results: Weaker means in comparison with the reference protein, sequence or condition of that experiment. For some of these results: At least one verdict rests on a figure or table, not on a statement of the authors.

On to “ACCGACCGTGCTGGACTCAGGGCGCATCTTTGGTAAGCAAAGATGGGTTGCAAGCCTCTCGACTATGAGCGAGCCTGGCG [YC1]”, for which the binding result in data set [1] (250 nM aptamer) is listed as “binds”.

Regarding “ACCGACCGTGCTGGACTCAGACGGAATCGTCCTTTGTCTACGTGCGGTCTAGACTGTATAGACTATGAGCGAGCCTGGCG [YC5]”, the binding result in data set [1] (setting [6]) is listed as “binds”. As to “ACCGACCGTGCTGGACTCAATCCATCGTCGACGAGCATACGAAGGGAGGGTATTGTAAGGGACTATGAGCGAGCCTGGCG [YC2]”, the binding result in data set [1] (250 nM aptamer) is given as “binds”.

Turning to “ACCGACCGTGCGATGAACAATCGATGGAAGATTGGGTCGCACCGGCCTCTTTCACTATGAGCGAGCCTGGCG [YC3-a]”, in data set [1] (500 nM aptamer), the binding result is listed as “binds more weakly”.

On to “ACCGACCGTGCTGGACTCAGGGTGGGTCGTTTCATAGGAAACGGGTGGAACGCCTCTAGCCACTATGAGCGAGCCTGGCG [YC4]”, for which, in data set [1] (setting [6]), the binding result is “binds”. Regarding “ACCGACCGTGCTGGACTCAGATGAACTGGGTCGCACCGGCCTCTTTCACTATGAGCGAGCCTGGCG [YC3-b]”, the binding result in data set [1] (500 nM aptamer) is listed as “binds more weakly”. Regarding “ACCGACCGTGCTGGACTCAGCCGTGACGTTCTACAGAGAACGGGTGGATCCCGCCTCTTCACTATGAGCGAGCCTGGCG [YC6]”, in data set [1] (250 nM aptamer), the binding result is on record as “binds”. On to “ACCGACCGTGCTGGACTCAGATGAACAATCGATGGAAGATTGGGTCGCACCGGCCTCTTTCACTATGAGCGAGCCTGGCG [YC3]”, for which the binding result in data set [2] is recorded as “binds”; in data set [3] it was “binds”; in the data set with TSHR K218A (human), “binds more weakly”; in data set [4] it was “binds”; in data set [5] it was “binds more weakly”; in data set [1] (37 C, stronger than at 4 C) it was “binds”. Moreover, in data set [1] (excess M22 antibody does not inhibit), the binding result is “binds”.

Consider “ACCGACCGTGCTGGACTCAGCCGTGACGTTCTACAGAGAACGGGTGGACCCGCCTCCTCACTATGAGCGAGCCTGGCG [YC8]”, for which the binding result in data set [1] (250 nM aptamer) was “binds”. As to “ACCGACCGTGCTGGACTCATGGTCACATCTATCGTACTAGCATGGGTCAATTGGCCTCTTGACTATGAGCGAGCCTGGCG [YC7]”, the binding result in data set [1] (250 nM aptamer) is “binds”.
